Laboratory results: paper PMC10323883
No constants are given. Whether binding was seen depends on the method and setting. Binding seen in cells or lysates may run through a third protein. Some results given as binding are weak or reduced against the parent protein; the word gives no strength. Tags and fused reporters may be left off the sequences shown.

Target: T1, GFP-tagged MND1 fusion protein (human) (UniProt Q9BWT6)
T1 sequence: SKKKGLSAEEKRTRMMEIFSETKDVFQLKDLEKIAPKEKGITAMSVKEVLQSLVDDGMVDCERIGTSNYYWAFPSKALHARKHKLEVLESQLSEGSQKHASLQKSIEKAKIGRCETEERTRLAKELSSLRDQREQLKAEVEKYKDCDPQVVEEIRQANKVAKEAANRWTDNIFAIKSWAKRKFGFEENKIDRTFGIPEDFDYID
Test: co-IP; cells expressing GFP-MND1 or GFP alone; with and without DNA damage (interaction called DNA damage-independent); no Co-IP protocol in the methods

B1: HOP2 (protein, UniProt Q9P2W1 1-217)
chain: MSKGRAEAAAGAAGILLRYLQEQNRPYSSQDVFGNLQREHGLGKAVVVKTLEQLAQQGKIKEKMYGKQKIYFADQDQFDMVSDADLQVLDGKIVALTAKVQSLQQSCRYMEAELKELSSALTTPEMQKEIQELKKECAGYRERLKNIKAATNHVTPEEKEQVYRERQKYCKEWRKRKRMATELSDAILEGYPKSKKQFFEEVGIETDEDYNVTLPDP
B1 was tested, and the binding was “binds”.
